Data source: PubChem BioAssay AID1508588 (Peter MacCallum Cancer Centre, 2020)

- Aim: 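Knock-downs boosting vemurafenib effects on melanoma cell growth or lactate release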 (primary screen)
- Cells: human WM266.4 melanoma cells (BRAF V600 mutant)
- Reagents: siRNA pool against human genes, 40 nM
- Timing: 96 h from transfection to read-out
- Conditions: vemurafenib 300 nM (about IC25), added 48 h after transfection, for 48 h; comparison arm got DMSO vehicle only
- Detection: 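Ratios to non-targeting siRNA for cell gain, counted as DAPI nuclei after minus before drug and averaged over two replicates, and for absorbance-read medium lactate per cell; both binned into fold-change classes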
- Scale: cell gain with vemurafenib: higher = more cell gain than with non-targeting siRNA; lactate per cell with vemurafenib: higher = more lactate made per cell
- Call rule: 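a knock-down counts as enhancing when its fold-change classes with vehicle and with vemurafenib, taken together, show a stronger drug effect on cell gain or lactate per cell; exact class pairs not stated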
- Calls: active = enhances vemurafenib effect; inactive = no enhancement seen
Here is a random part of about 18,000 reagents. 790 of them (4.4%) were called active. 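Calls rest on a combination of fold-change classes in drug and vehicle arms, not all shown here.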 A reagent listed more than once was tested more than once; the source does not tell the runs apart.

Target gene | cell gain with vemurafenib | lactate per cell with vemurafenib | outcome
MYOZ2 | 0.59 | 1.21 | inactive
ERVW-1 | 0.69 | 1.17 | inactive
CD3D | 0.79 | 0.83 | inactive
XYLT1 | 0.48 | 0.68 | inactive
SEMA5B | 0.74 | 1.05 | inactive
ZFP42 | 1.31 | -0.06 | active
OPA1 | 0.22 | 1.09 | inactive
SRPK2 | 0.35 | 1.05 | inactive
NRAS | 0.79 | 1.06 | inactive
ALOXE3 | 0.35 | 0.92 | inactive
ARL3 | 0.67 | 0.81 | inactive
MIMS1 | 0.28 | 0.29 | inactive
BICDL1 | 0.12 | 2.54 | inactive
ARIH1 | 0.3 | 0.18 | active
ARIH1 | 0.69 | 0.73 | active
NAV2 | 0.98 | 0.7 | inactive
CLTCL1 | 0.5 | 1.07 | inactive
ECE1 | 0.26 | 0.82 | inactive
DLG3 | 0.77 | 1.17 | inactive
MAPK10 | 0.35 | 0.44 | active
DMRT1 | 0.53 | 0.97 | inactive
TMPPE | 0.3 | 0.42 | active
CCR6 | -0.06 | 2.14 | inactive
C1QTNF3 | 1.49 | 0.65 | inactive
PAAF1 | -0.04 | 3.02 | inactive
FETUB | 0.6 | 1.23 | inactive
FCSK | 0.33 | 1.21 | inactive
IMMP2L | 0.38 | 0.71 | inactive
SCARB1 | 0.74 | 0.61 | inactive
DYNLT2B | 0.56 | 0.38 | inactive
LHFPL7 | 0.28 | 2.75 | inactive
DDX59 | 0.65 | 0.8 | inactive
B4GALNT4 | 0.99 | 1.05 | inactive
FTSJ3 | 0.76 | 0.55 | inactive
CDC45 | 0.3 | 1.23 | inactive
GOLGA5 | 0.87 | 0.82 | inactive
DCTD | 0.82 | 0.53 | inactive
TIMM10B | 0.54 | 1.32 | inactive
CDKN2B | 1.36 | 0.64 | inactive
BMP7 | 0.53 | 0.7 | inactive
ESYT3 | 0.63 | 1.09 | inactive
PPIE | 0.95 | 1.36 | inactive
PARP2 | 0.79 | 1.25 | inactive
KRTAP12-1 | 1.08 | 0.4 | inactive
TMEM179 | 0.7 | 0.42 | inactive
C4orf51 | 0.23 | 0.62 | inactive
OR10R2 | 0.9 | 1.08 | inactive
SLC35G3 | 0.46 | 0.8 | inactive
UBR1 | 0.71 | 1.2 | inactive
IGF2BP1 | 0.38 | 0.46 | active
FAT2 | -0.08 | 1.56 | inactive
MRM2 | 0.53 | 1.33 | inactive
DDX28 | 0.98 | 0.83 | inactive

An excerpt taken from the entries so far, for reference:
Target gene | cell gain with vemurafenib | lactate per cell with vemurafenib | outcome
B4GALNT4 | 0.99 | 1.05 | inactive
FTSJ3 | 0.76 | 0.55 | inactive
CDC45 | 0.3 | 1.23 | inactive
GOLGA5 | 0.87 | 0.82 | inactive
DCTD | 0.82 | 0.53 | inactive
TIMM10B | 0.54 | 1.32 | inactive
CDKN2B | 1.36 | 0.64 | inactive
BMP7 | 0.53 | 0.7 | inactive
ESYT3 | 0.63 | 1.09 | inactive
PPIE | 0.95 | 1.36 | inactive
PARP2 | 0.79 | 1.25 | inactive
KRTAP12-1 | 1.08 | 0.4 | inactive
TMEM179 | 0.7 | 0.42 | inactive

Additional entries:
Target gene | cell gain with vemurafenib | lactate per cell with vemurafenib | outcome
TM4SF19 | 0.12 | 1.72 | inactive
FAM187B | 0.73 | 0.88 | inactive
SCNN1B | 0.67 | 1.8 | inactive
ZNF704 | 0.81 | 0.44 | inactive
OR8A1 | 0.83 | 0.62 | inactive
ALDH3A2 | 1.07 | 1.12 | inactive
ABCD2 | 0.46 | 0.58 | inactive
SPDYE3 | 0.73 | 0.82 | inactive
PTTG2 | 0.71 | 0.91 | inactive
CCDC181 | 1.06 | 0.68 | inactive
IZUMO1 | 0.68 | 0.51 | inactive
TAS2R4 | 1.03 | 0.49 | inactive
NRDE2 | 0.64 | 1.44 | inactive
DPPA4 | 0.89 | 0.41 | inactive
PTPRF | 0.33 | 1.73 | inactive
CIDEB | 0 | 0 | inactive
RAB19 | 0.54 | 1.17 | inactive
XPNPEP2 | 0.86 | 0.62 | inactive
TMF1 | 0.45 | 1.05 | inactive
SPACA7 | 1.16 | 0.64 | inactive
CAMKK1 | 0.49 | 1.52 | inactive
CAMKK1 | 0.31 | 2.61 | inactive
YY2 | 1.06 | 0.65 | inactive
TLR6 | 0.21 | 1.32 | inactive
MUC4 | 0.56 | 1.35 | inactive
TNFAIP2 | 0.91 | 1.32 | inactive
DOCK5 | 0.7 | 1.15 | inactive
SERBP1 | 0.79 | 1.25 | inactive
PSMA4 | 0.01 | 1.65 | inactive
LTO1 | 0.41 | 1.84 | inactive
DYNC1I1 | 0.92 | 0.93 | inactive
